Experimental data as given in PMC10598267.
Results are given in words; binding and its absence hold for the method and conditions named. In cells and extracts the contact can be indirect. Some results given as binding are weak or reduced against the parent protein; the word gives no strength. Values belong to the substance of their own block, whether it stands above or below them.

Sequences of proteins named here, by UniProt entry; tags and fusion partners are left off.
UniProt Q8WW22: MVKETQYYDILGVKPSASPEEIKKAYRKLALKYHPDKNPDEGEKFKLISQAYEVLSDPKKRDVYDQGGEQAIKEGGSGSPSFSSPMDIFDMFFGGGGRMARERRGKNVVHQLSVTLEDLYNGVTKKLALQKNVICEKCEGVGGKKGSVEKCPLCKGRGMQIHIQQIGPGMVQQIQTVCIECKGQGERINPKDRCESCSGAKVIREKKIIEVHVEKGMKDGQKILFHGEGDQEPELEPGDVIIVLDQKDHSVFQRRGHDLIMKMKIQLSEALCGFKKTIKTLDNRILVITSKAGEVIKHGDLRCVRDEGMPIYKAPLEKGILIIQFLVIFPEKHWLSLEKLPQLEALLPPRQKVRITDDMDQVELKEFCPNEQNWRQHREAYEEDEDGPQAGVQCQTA
UniProt P35579: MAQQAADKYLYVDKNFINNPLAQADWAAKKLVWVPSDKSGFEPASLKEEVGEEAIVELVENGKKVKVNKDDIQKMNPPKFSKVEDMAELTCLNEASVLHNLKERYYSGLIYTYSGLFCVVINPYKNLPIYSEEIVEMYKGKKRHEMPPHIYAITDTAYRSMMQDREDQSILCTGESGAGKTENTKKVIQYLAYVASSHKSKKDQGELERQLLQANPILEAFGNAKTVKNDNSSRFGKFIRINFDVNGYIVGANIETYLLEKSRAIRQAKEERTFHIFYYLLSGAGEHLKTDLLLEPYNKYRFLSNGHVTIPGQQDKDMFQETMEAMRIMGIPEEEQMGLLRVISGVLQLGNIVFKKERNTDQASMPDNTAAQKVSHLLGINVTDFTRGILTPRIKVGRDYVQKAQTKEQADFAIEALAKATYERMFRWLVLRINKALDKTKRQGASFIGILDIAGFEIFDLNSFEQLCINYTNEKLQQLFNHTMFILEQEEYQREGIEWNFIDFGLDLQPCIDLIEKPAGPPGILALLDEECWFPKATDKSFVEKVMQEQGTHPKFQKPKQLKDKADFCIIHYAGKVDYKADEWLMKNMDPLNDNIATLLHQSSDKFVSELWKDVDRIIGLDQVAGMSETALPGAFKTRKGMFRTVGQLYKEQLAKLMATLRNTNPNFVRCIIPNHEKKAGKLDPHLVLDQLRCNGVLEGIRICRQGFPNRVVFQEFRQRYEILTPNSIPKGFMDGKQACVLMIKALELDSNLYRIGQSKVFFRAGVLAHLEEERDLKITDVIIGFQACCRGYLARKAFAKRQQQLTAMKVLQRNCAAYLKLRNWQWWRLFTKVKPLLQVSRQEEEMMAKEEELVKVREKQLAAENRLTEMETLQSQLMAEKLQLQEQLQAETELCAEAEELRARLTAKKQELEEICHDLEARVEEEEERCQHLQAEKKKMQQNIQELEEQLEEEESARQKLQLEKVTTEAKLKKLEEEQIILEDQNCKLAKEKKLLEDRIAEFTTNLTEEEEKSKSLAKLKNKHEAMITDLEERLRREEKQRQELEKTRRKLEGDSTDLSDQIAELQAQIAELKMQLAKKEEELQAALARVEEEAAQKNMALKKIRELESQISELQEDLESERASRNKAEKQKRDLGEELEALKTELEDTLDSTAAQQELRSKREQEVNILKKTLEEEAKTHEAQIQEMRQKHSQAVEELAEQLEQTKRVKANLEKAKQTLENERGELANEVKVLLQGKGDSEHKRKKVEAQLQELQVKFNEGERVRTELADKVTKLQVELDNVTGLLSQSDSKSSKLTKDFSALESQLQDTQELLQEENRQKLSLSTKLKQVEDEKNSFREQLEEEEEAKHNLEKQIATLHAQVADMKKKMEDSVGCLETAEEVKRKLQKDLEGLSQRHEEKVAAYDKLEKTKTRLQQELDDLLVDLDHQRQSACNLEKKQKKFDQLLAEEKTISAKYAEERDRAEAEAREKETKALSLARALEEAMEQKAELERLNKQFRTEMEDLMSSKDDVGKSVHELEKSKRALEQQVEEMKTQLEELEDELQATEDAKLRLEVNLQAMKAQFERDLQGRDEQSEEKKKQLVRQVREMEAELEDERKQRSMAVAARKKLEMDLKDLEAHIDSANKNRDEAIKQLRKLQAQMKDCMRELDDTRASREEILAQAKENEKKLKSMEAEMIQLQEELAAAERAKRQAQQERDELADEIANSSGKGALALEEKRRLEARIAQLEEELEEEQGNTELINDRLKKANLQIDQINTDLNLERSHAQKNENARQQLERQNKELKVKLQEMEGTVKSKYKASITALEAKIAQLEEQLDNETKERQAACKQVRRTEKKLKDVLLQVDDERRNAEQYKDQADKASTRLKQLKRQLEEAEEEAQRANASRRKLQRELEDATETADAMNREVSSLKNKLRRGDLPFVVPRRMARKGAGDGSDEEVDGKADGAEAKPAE
UniProt Q13200: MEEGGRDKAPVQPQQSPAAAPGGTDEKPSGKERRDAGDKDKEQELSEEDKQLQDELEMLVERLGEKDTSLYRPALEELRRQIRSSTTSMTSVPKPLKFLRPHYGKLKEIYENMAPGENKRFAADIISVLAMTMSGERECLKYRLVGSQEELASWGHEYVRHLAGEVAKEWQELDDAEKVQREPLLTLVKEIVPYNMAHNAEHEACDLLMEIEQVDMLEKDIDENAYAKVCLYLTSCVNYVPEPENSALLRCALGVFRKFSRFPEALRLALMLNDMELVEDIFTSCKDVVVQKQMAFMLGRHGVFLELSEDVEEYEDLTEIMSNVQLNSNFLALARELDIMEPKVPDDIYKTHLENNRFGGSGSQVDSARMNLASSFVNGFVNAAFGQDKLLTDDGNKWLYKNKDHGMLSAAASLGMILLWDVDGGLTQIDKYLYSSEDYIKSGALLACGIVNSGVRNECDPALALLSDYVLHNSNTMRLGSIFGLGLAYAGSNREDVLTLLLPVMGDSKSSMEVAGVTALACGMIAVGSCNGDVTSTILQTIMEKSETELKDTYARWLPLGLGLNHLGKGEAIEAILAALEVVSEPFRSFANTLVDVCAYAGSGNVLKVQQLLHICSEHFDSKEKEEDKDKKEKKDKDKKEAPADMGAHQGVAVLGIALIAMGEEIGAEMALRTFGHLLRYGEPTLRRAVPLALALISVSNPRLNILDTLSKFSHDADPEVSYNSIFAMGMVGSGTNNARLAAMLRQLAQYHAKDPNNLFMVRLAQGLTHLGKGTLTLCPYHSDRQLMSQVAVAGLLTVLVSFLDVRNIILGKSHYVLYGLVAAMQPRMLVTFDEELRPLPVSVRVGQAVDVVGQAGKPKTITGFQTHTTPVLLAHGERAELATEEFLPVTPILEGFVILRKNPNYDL

Key:
[1] = molecular target: HA-tagged DNAJA4 (DNAJ Heat Shock Protein Family (HSP40) Member A4) (UniProt Q8WW22); experiment: co-IP; exogenous DNAJA4-HA and MYH9-FLAG in HONE1 and SUNE1 cells; IP with anti-HA or anti-Flag antibodies, western blot
[2] = molecular target: HA-tagged DNAJA4 (DNAJ Heat Shock Protein Family (HSP40) Member A4) (UniProt Q8WW22); experiment: co-IP; domain deletion mutants of DNAJA4 and PSMD2 (Supplementary Fig. S4, not shown); the text does not name the method, co-IP is the paper's only binding method
[3] = molecular target: DNAJA4 (endogenous) (human (endogenous in HONE1 and SUNE1)) (UniProt Q8WW22); experiment: co-IP; endogenous proteins in HONE1 and SUNE1 cells; IP with anti-DNAJA4 or anti-MYH9 antibodies, western blot for PSMD2
[4] = molecular target: MYH9 (endogenous) (human (endogenous in HONE1 and SUNE1)) (UniProt P35579); experiment: as above

binding [1]: binds
Substance: FLAG-tagged MYH9 (from UniProt P35579 1-1960)

binding [2]: binds
Substance: PSMD2, tagged overexpression construct (from UniProt Q13200 1-908)

binding [3]: binds
binding [4]: binds
Substance: PSMD2 (endogenous) (from UniProt Q13200 1-908)
